PubChem BioAssay AID493246 | Drosophila RNAi Screening Center | 2011
In all, the deposit lists about 21,000 reagents; below is an unselected part of those that have a named target and a result. Over the whole deposit, 429 (2%) were called active. 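Values are raw and not normalised between plates; calls rest on per-plate z-scores that were not deposited.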 Entries without a mark were called inactive. The record does not give: the amount of reagent, the time to read-out.

Purpose: 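Genome-wide search for dsRNAs that reduce cell number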 (primary screen)
Cells: Drosophila Kc and S2R+ cells
Reagent: long dsRNA against Drosophila genes
Measured: 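Raw, unnormalised count of remaining cells in each well; per-plate z-scores of cell number underlie the calls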
Scale: Kc cell number and S2R+ cell number: higher = more cells remaining
Active means: 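Counted as a hit if cell number falls by a z-score of at least 3 within its plate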

Against Pex11ab [DRSC07145] the deposit lists Kc cell number, rep 1 = 1.50e6; Kc cell number, rep 2 = 1.55e6; S2R+ cell number, rep 1 = 1.09e6; S2R+ cell number, rep 2 = 1.27e6.
Against Syb [DRSC07559] the deposit lists Kc cell number, rep 1 = 1.57e6; Kc cell number, rep 2 = 1.58e6; S2R+ cell number, rep 1 = 9.33e5; S2R+ cell number, rep 2 = 9.97e5.
Knock-down of Cp190 [DRSC16607] came out at: Kc cell number, rep 1 = 1.68e6; Kc cell number, rep 2 = 1.78e6; S2R+ cell number, rep 1 = 1.31e6; S2R+ cell number, rep 2 = 1.42e6.
sub [DRSC06125] gave Kc cell number, rep 1 = 1.35e6; Kc cell number, rep 2 = 1.48e6; S2R+ cell number, rep 1 = 1.16e6; S2R+ cell number, rep 2 = 1.11e6.
Knock-down of Dpck [DRSC12575] came out at: Kc cell number, rep 1 = 1.42e6; Kc cell number, rep 2 = 1.57e6; S2R+ cell number, rep 1 = 1.15e6; S2R+ cell number, rep 2 = 1.25e6.
Against Urod [DRSC07569], the entry reads Kc cell number, rep 1 = 1.78e6; Kc cell number, rep 2 = 1.84e6; S2R+ cell number, rep 1 = 1.39e6; S2R+ cell number, rep 2 = 1.64e6.
CG13032 [DRSC09912] gave Kc cell number, rep 1 = 1.22e6; Kc cell number, rep 2 = 1.25e6; S2R+ cell number, rep 1 = 1.25e6; S2R+ cell number, rep 2 = 1.32e6.
robl22E [DRSC00289] gave Kc cell number, rep 1 = 1.58e6; Kc cell number, rep 2 = 1.60e6; S2R+ cell number, rep 1 = 1.10e6; S2R+ cell number, rep 2 = 1.18e6.
Knock-down of Dg [DRSC06718] gave: Kc cell number, rep 1 = 1.59e6; Kc cell number, rep 2 = 1.59e6; S2R+ cell number, rep 1 = 1.19e6; S2R+ cell number, rep 2 = 1.38e6.
For IKKepsilon [DRSC03550], the entry reads Kc cell number, rep 1 = 1.58e6; Kc cell number, rep 2 = 1.65e6; S2R+ cell number, rep 1 = 1.27e6; S2R+ cell number, rep 2 = 2.96e5.
Against GstD11 [DRSC15251], the values are Kc cell number, rep 1 = 1.44e6; Kc cell number, rep 2 = 1.49e6; S2R+ cell number, rep 1 = 1.20e6; S2R+ cell number, rep 2 = 1.26e6.

Records listed so far whose target name starts with D or d (2):
Dpck [DRSC12575] | Kc cell number, rep 1 = 1.42e6; Kc cell number, rep 2 = 1.57e6; S2R+ cell number, rep 1 = 1.15e6; S2R+ cell number, rep 2 = 1.25e6
Dg [DRSC06718] | Kc cell number, rep 1 = 1.59e6; Kc cell number, rep 2 = 1.59e6; S2R+ cell number, rep 1 = 1.19e6; S2R+ cell number, rep 2 = 1.38e6

The listing continues:
After knock-down of Sirup [DRSC03031], the record shows Kc cell number, rep 1 = 1.54e6; Kc cell number, rep 2 = 1.55e6; S2R+ cell number, rep 1 = 1.20e6; S2R+ cell number, rep 2 = 1.38e6.
Against CG6592 [DRSC10669], the entry reads Kc cell number, rep 1 = 1.42e6; Kc cell number, rep 2 = 1.42e6; S2R+ cell number, rep 1 = 1.11e6; S2R+ cell number, rep 2 = 1.21e6.
With knock-down of AhcyL1 [DRSC08647], the record shows Kc cell number, rep 1 = 1.57e6; Kc cell number, rep 2 = 1.44e6; S2R+ cell number, rep 1 = 1.17e6; S2R+ cell number, rep 2 = 1.40e6.
With knock-down of Vajk1 [DRSC01882], the screen gave Kc cell number, rep 1 = 1.89e6; Kc cell number, rep 2 = 1.89e6; S2R+ cell number, rep 1 = 1.38e6; S2R+ cell number, rep 2 = 1.64e6.
After knock-down of Ance [DRSC01865], the screen gave Kc cell number, rep 1 = 1.28e6; Kc cell number, rep 2 = 1.25e6; S2R+ cell number, rep 1 = 1.25e6; S2R+ cell number, rep 2 = 1.26e6.
After knock-down of hid [DRSC11316], the screen gave Kc cell number, rep 1 = 1.38e6; Kc cell number, rep 2 = 1.50e6; S2R+ cell number, rep 1 = 1.32e6; S2R+ cell number, rep 2 = 1.37e6.
Knock-down of RhoGAP92B [DRSC14507] resulted in: Kc cell number, rep 1 = 1.17e6; Kc cell number, rep 2 = 1.18e6; S2R+ cell number, rep 1 = 1.10e6; S2R+ cell number, rep 2 = 1.17e6.
Depletion of RhoGAP92B [DRSC15637] resulted in: Kc cell number, rep 1 = 1.12e6; Kc cell number, rep 2 = 1.16e6; S2R+ cell number, rep 1 = 1.15e6; S2R+ cell number, rep 2 = 1.18e6.
CG5026 [DRSC10470] showed Kc cell number, rep 1 = 1.35e6; Kc cell number, rep 2 = 1.39e6; S2R+ cell number, rep 1 = 1.21e6; S2R+ cell number, rep 2 = 1.16e6.
Sf3a2 [DRSC09801] scored Kc cell number, rep 1 = 1.19e6; Kc cell number, rep 2 = 1.30e6; S2R+ cell number, rep 1 = 9.37e5; S2R+ cell number, rep 2 = 9.11e5.
With knock-down of Cyp4d2 [DRSC18458], the record shows Kc cell number, rep 1 = 5.36e5; S2R+ cell number, rep 1 = 8.46e5.
Depletion of Apc2 [DRSC14115] came out at: Kc cell number, rep 1 = 1.75e6; Kc cell number, rep 2 = 1.79e6; S2R+ cell number, rep 1 = 1.31e6; S2R+ cell number, rep 2 = 1.39e6.
Depletion of maf-S [DRSC07348] came out at: Kc cell number, rep 1 = 1.35e6; Kc cell number, rep 2 = 1.22e6; S2R+ cell number, rep 1 = 1.00e6; S2R+ cell number, rep 2 = 1.38e6.
Against indra [DRSC08558], the entry reads Kc cell number, rep 1 = 1.33e6; Kc cell number, rep 2 = 1.40e6; S2R+ cell number, rep 1 = 1.18e6; S2R+ cell number, rep 2 = 1.17e6.
Silencing of Vps33B [DRSC15722] gave: Kc cell number, rep 1 = 5.07e5; S2R+ cell number, rep 1 = 8.15e5.
For CG31198 [DRSC15891] the deposit lists Kc cell number, rep 1 = 1.49e6; Kc cell number, rep 2 = 1.54e6; S2R+ cell number, rep 1 = 1.20e6; S2R+ cell number, rep 2 = 1.29e6.
